Test results taken from PubChem BioAssay AID1487 (National Center for Advancing Translational Sciences (NCATS), 2009).
This is one part of the list. The main result of the screen is listed elsewhere. These columns were measured beside it and carry no call. Compounds called inactive in the main read-out are mostly missing here. Potencies come from curve fits of mixed quality, noted in brackets.

Experiment: qHTS Assay for Modulators of Lamin A Splicing
Conditions: HeLa LMNA splicing GFP/RFP minigene ratio, 48 h
Procedure, shortened: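 Read-out is the ratio of GFP to DsRed2 object intensity, acquired by 488 nm laser-scanning cytometry on HeLa lamin A-EGFP minigene reporter cells. Compound incubation 48 hrs at 37 °C in Opti-MEM with 2% FBS; DMSO 0.5% final.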

[1] = measured here: RFP viability control channel
[2] = measured here: GFP splicing reporter channel

SMILES | AC50 [1] | AC50 [2]
O=[N+]([O-])c1ccc(CN2CCOCCOCCN(Cc3ccc([N+](=O)[O-])cc3)CCOCC2)cc1 | 12.6 µM [rising, single point] | 
CSc1ccc(/C=C/c2ccc3cccc(O)c3n2)cc1 | 11.2 µM [rising, partial curve] | 
Cc1ccc(-n2nc3ccc(NC(=O)C(C)C)cc3n2)cc1 | 1.41 µM [falling, full curve, poor fit] | 5.62 µM [falling, partial curve]
COc1cccc(NC(=O)C2CC(=O)N(C)C(=Nc3cccc(F)c3)S2)c1 (stereo not given) | 12.6 µM [rising, single point] | 12.6 µM [rising, partial curve, poor fit]
Cc1ccc(OCC(=O)N/N=C2/SCC(=O)N2Cc2ccco2)cc1 | 31.6 µM [falling, partial curve, poor fit] | 
CC(C)c1ccc(S(=O)(=O)c2cn(Cc3ccc(F)cc3)c3cc4c(cc3c2=O)OCO4)cc1 | 0.0158 µM [rising, full curve, poor fit] | 
C=C(C)COc1ccc(-c2n[nH]c(C)c2Oc2ccccc2OC)c(O)c1 | 20 µM [rising, single point] | 25.1 µM [rising, single point]
Cc1ccc(C)c(N2CCN(C(=O)c3ccc(CS(=O)(=O)c4ccccc4C)o3)CC2)c1 | 3.55 µM [rising, single point] | 
CC(NC(=O)COC(=O)Cc1ccsc1)c1ccccc1 (stereo not given) |  | 0.00891 µM [rising, full curve, poor fit]
CSc1ncc(Cl)c(C(=O)Nc2ccc(S(=O)(=O)N3CCOCC3)cc2)n1 | 31.6 µM [rising, single point] | 15.8 µM [rising, single point]
COc1ccc(CC(=O)NCc2nnc(SCC(=O)Nc3ccc(OC)cc3)n2C)cc1 | 1.78 µM [falling, full curve] | 1.26 µM [falling, partial curve]
CC1=C(c2ccc(C(C)C)cc2)S(=O)(=O)N=C1N1CCC(C(=O)NCc2ccco2)CC1 | 22.4 µM [falling, single point] | 35.5 µM [falling, single point]
Cc1ccc(-n2c(CNc3ccc(F)cc3)nnc2SCC(N)=O)cc1 | 1.12 µM [falling, partial curve, poor fit] | 
COc1ccc(-n2ncc3c(N4CCN(Cc5ccccc5)CC4)ncnc32)cc1 | 2 µM [falling, partial curve] | 
CN1CCN(C(=O)CCN2C(=O)/C(=C/c3ccccc3Cl)SC2=S)CC1 | 0.1 µM [falling, full curve, poor fit] | 17.8 µM [falling, partial curve, poor fit]
CC(C)CNC(=O)CSc1nnc(-c2ccc(Cl)cc2)n1N | 1.78 µM [falling, partial curve, poor fit] | 
COc1ccc(CCNc2ncnc3c2c(-c2ccccc2)cn3-c2cccc(Cl)c2)cc1OC | 0.0141 µM [rising, full curve, poor fit] | 
Cc1cc(Nc2ccccc2)n(-c2nc3ccccc3[nH]2)n1 | 14.1 µM [rising, single point] | 
CN(C)CCNC(=O)c1ccc2nc(Cc3ccccc3)oc2c1 | 0.501 µM [falling, full curve, poor fit] | 

An excerpt from the list above, for reference:
SMILES | AC50 [1] | AC50 [2]
COc1cccc(NC(=O)C2CC(=O)N(C)C(=Nc3cccc(F)c3)S2)c1 (stereo not given) | 12.6 µM [rising, single point] | 12.6 µM [rising, partial curve, poor fit]
Cc1ccc(OCC(=O)N/N=C2/SCC(=O)N2Cc2ccco2)cc1 | 31.6 µM [falling, partial curve, poor fit] | 
CC(C)c1ccc(S(=O)(=O)c2cn(Cc3ccc(F)cc3)c3cc4c(cc3c2=O)OCO4)cc1 | 0.0158 µM [rising, full curve, poor fit] | 
C=C(C)COc1ccc(-c2n[nH]c(C)c2Oc2ccccc2OC)c(O)c1 | 20 µM [rising, single point] | 25.1 µM [rising, single point]
Cc1ccc(C)c(N2CCN(C(=O)c3ccc(CS(=O)(=O)c4ccccc4C)o3)CC2)c1 | 3.55 µM [rising, single point] | 
CC(NC(=O)COC(=O)Cc1ccsc1)c1ccccc1 (stereo not given) |  | 0.00891 µM [rising, full curve, poor fit]
CSc1ncc(Cl)c(C(=O)Nc2ccc(S(=O)(=O)N3CCOCC3)cc2)n1 | 31.6 µM [rising, single point] | 15.8 µM [rising, single point]
COc1ccc(CC(=O)NCc2nnc(SCC(=O)Nc3ccc(OC)cc3)n2C)cc1 | 1.78 µM [falling, full curve] | 1.26 µM [falling, partial curve]
CC1=C(c2ccc(C(C)C)cc2)S(=O)(=O)N=C1N1CCC(C(=O)NCc2ccco2)CC1 | 22.4 µM [falling, single point] | 35.5 µM [falling, single point]
Cc1ccc(-n2c(CNc3ccc(F)cc3)nnc2SCC(N)=O)cc1 | 1.12 µM [falling, partial curve, poor fit] | 
COc1ccc(-n2ncc3c(N4CCN(Cc5ccccc5)CC4)ncnc32)cc1 | 2 µM [falling, partial curve] | 
CN1CCN(C(=O)CCN2C(=O)/C(=C/c3ccccc3Cl)SC2=S)CC1 | 0.1 µM [falling, full curve, poor fit] | 17.8 µM [falling, partial curve, poor fit]
CC(C)CNC(=O)CSc1nnc(-c2ccc(Cl)cc2)n1N | 1.78 µM [falling, partial curve, poor fit] | 
COc1ccc(CCNc2ncnc3c2c(-c2ccccc2)cn3-c2cccc(Cl)c2)cc1OC | 0.0141 µM [rising, full curve, poor fit] | 
Cc1cc(Nc2ccccc2)n(-c2nc3ccccc3[nH]2)n1 | 14.1 µM [rising, single point] | 
CN(C)CCNC(=O)c1ccc2nc(Cc3ccccc3)oc2c1 | 0.501 µM [falling, full curve, poor fit] | 

Next results follow.

SMILES | AC50 [1] | AC50 [2]
COCCN1C(=O)N[C@@H](c2ccc(Br)cc2)C(C(=O)OC)=C1C | 20 µM [rising, single point] | 
Cc1ccc(NC(=O)c2ccc(CN3CCc4ccccc4C3)cc2)cc1 | 7.94 µM [rising, partial curve] | 0.0316 µM [rising, full curve, poor fit]
COc1ccc(C2C(C(=O)OC3CCCCC3)=C(C)Nc3nnnn32)c(OC)c1OC (stereo not given) |  | 10 µM [rising, single point]
COc1ccc(C(=O)NCC(c2ccc(N(C)C)cc2)N2CCOCC2)cc1 (stereo not given) | 12.6 µM [rising, partial curve] | 
CCC(C)n1c(SCc2ccc(F)cc2Cl)nc2ccsc2c1=O (stereo not given) | 11.2 µM [rising, partial curve, poor fit] | 
O=C(Cn1ccc2ccccc2c1=O)N1CCN(Cc2ccc3c(c2)OCO3)CC1 | 11.2 µM [rising, partial curve] | 4.47 µM [rising, partial curve]
COc1cccc(/C=N/n2c(C)nc3ccccc3c2=O)c1O | 35.5 µM [rising, single point] | 
CCOC(=O)N1CCN(C(=O)CSc2ccc(-c3ccccc3OC)nn2)CC1 | 0.0282 µM [falling, full curve, poor fit] | 
COc1ccccc1N1CCN(c2ncc3c(n2)CCN(Cc2ccc(C)s2)C3)CC1 |  | 3.98 µM [rising, single point]
N=c1c2c(n(Cc3ccc(Br)cc3)c3c1CCC3)CCCC2 | 2.82 µM [rising, full curve] | 2 µM [rising, partial curve, poor fit]
Cc1ccc(C(=O)Nc2nnc(-c3ccco3)o2)cc1 | 35.5 µM [rising, single point] | 
CCCCCOc1ccc(OC(=O)c2ccncc2)cc1 |  | 12.6 µM [falling, partial curve]
Cn1c(SCC(=O)N/N=C/c2ccco2)nc2ccccc21 |  | 0.0891 µM [rising, full curve, poor fit]
Cc1ccc(NC(=O)CN(C)C(=O)COc2ccc(C(=O)c3ccc(F)cc3)cc2)cc1 | 35.5 µM [rising, single point] | 35.5 µM [rising, single point]
COc1ccc2[nH]c3c(=O)n(Cc4ccc(C(=O)NCC5CCCO5)cc4)c(=S)[nH]c3c2c1 (stereo not given) | 0.501 µM [falling, full curve, poor fit] | 0.316 µM [falling, full curve, poor fit]
C/C(=N\NS(=O)(=O)c1ccccc1)c1ccc2c(c1)OCO2 | 0.00891 µM [falling, full curve, poor fit] | 
CCc1cccc(NC(=O)Cn2c(-c3ccc(F)cc3)cc(C(C)=O)c2C)c1 | 14.1 µM [falling, single point] | 
Cc1ccccc1Nc1nc(N)nc(CN2CCN(C(=O)c3ccccc3)CC2)n1 | 20 µM [falling, partial curve] | 
CC(C)(C)NCC(O)c1cc(O)cc(O)c1 (stereo not given) | 0.158 µM [rising, full curve, poor fit] | 

SMILES | AC50 [1] | AC50 [2]
CC(C)(C)c1csc(NC(=O)c2ccc(Cl)s2)n1 | 17.8 µM [rising, partial curve] | 11.2 µM [rising, single point]
Nc1nc2nc(-c3cccs3)cc(C(F)(F)F)n2n1 |  | 0.501 µM [falling, full curve, poor fit]
Cc1ccccc1N/N=C/c1ccc(C#N)cc1 | 35.5 µM [falling, single point] | 
COC(=O)C12CCC3(SCCS3)C(C(=O)OC)(CCC13SCCS3)C2 | 3.55 µM [rising, full curve] | 
COC(=O)c1ccccc1NS(=O)(=O)c1ccc(Cl)nc1 | 4.47 µM [falling, partial curve] | 0.562 µM [falling, full curve]
CCc1cccc(C)c1NC(=O)CSc1nnc(-c2cc3cc(Br)ccc3o2)n1CC | 14.1 µM [rising, single point] | 
COc1ccc2c(c1)C1=NN(/C(C)=C/C(C)=O)C(c3ccc(F)cc3)C1CC2 (stereo not given) | 11.2 µM [rising, partial curve] | 
CC(C)(C)c1cc(NC(=O)c2cccc(S(=O)(=O)N3CCOCC3)c2)no1 | 35.5 µM [rising, single point] | 
CSc1ccc(NC(=O)/C=C/C(=O)O)cc1 | 35.5 µM [falling, single point] | 
CC(NC(=O)c1ccco1)c1cccc2ccccc12 (stereo not given) | 35.5 µM [rising, single point] | 
O=S(=O)(Cc1ccccc1)NCC1CCCN(Cc2cccc3nonc23)C1 (stereo not given) | 0.0355 µM [falling, full curve, poor fit] | 
CC(NC(=O)NC12CC3CC(CC(C3)C1)C2)c1ccc2c(c1)OCO2 (stereo not given) | 5.62 µM [falling, single point] | 
Cc1cc(C(=O)N/N=C/c2cc(Br)ccc2OC(=O)c2ccc(Br)cc2)n[nH]1 | 20 µM [rising, partial curve, poor fit] | 
Cc1c(-c2ccn[nH]2)cc(NC(=O)c2ccc(Cl)cc2)c(=O)n1N | 1.41 µM [falling, full curve] | 2.51 µM [falling, full curve]
Cc1nc(C)n(CC(O)COc2ccc3cc(Br)ccc3c2)n1 (stereo not given) | 20 µM [rising, single point] | 
Cn1ncc(Cl)c1C(=O)NCc1ccc(Cl)cc1 | 12.6 µM [rising, partial curve] | 10 µM [rising, partial curve]
CC1(C)CC2CC(C)(CN2c2ncnc3ccc(Br)cc23)C1 (stereo not given) | 11.2 µM [rising, single point] | 11.2 µM [rising, single point]
CCOCCCn1c(SCC(=O)Nc2ccc(F)cc2)nc2c(sc3ccccc32)c1=O | 11.2 µM [falling, partial curve] | 11.2 µM [falling, partial curve, poor fit]
CCC(C(=O)Nc1cc(-c2cn3cccnc3n2)ccc1C)c1ccccc1 (stereo not given) |  | 3.55 µM [rising, full curve]
